In article PMC7137325:
No constants are given. Whether binding was seen depends on the method and setting. In cells and extracts the contact can be indirect. Some entries that bind do so weakly or less than the wild type.

Legend:
[1] = target: T1, AGGF1 (human (endogenous in K562)) (UniProt Q8N302); test: condition: only high-salt wash buffers present in eCLIP; co-IP; immunoprecipitation from UV crosslinked K562 cells in high-salt wash conditions with standard eCLIP wash buffers, beads and reagents; western probed for HNRNPL
T1 sequence: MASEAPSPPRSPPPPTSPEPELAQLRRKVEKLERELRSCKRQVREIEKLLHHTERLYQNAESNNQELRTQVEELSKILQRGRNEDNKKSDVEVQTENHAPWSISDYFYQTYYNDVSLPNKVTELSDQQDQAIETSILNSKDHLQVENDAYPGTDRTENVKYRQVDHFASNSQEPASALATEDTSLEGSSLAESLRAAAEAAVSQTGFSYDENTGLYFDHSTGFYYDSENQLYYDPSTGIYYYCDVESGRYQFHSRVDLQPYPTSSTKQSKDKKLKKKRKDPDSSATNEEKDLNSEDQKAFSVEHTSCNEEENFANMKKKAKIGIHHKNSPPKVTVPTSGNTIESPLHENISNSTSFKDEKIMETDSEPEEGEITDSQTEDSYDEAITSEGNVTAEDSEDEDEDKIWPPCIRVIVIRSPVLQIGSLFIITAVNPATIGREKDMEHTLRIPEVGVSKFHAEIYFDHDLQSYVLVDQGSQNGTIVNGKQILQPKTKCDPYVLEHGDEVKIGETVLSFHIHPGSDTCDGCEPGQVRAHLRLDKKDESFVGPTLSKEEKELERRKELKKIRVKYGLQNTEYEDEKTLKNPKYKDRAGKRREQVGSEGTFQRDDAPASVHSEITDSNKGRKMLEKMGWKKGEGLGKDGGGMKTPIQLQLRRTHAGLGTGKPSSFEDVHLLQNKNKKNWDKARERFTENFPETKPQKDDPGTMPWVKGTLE

[2] = target: T1, AGGF1 (human (endogenous in K562)); test: co-IP; low-salt co-immunoprecipitation from UV crosslinked K562 cells; lysis buffer 50 mM Tris-HCl pH 7.5, 150 mM NaCl, 1% Triton X-100, 0.1% sodium deoxycholate, protease inhibitor; 5 washes in TBS + 0.05% NP-40; western probed for HNRNPL
[3] = target: T2, RBFOX2 (human (endogenous in K562)) (UniProt O43251); test: as above
T2 sequence: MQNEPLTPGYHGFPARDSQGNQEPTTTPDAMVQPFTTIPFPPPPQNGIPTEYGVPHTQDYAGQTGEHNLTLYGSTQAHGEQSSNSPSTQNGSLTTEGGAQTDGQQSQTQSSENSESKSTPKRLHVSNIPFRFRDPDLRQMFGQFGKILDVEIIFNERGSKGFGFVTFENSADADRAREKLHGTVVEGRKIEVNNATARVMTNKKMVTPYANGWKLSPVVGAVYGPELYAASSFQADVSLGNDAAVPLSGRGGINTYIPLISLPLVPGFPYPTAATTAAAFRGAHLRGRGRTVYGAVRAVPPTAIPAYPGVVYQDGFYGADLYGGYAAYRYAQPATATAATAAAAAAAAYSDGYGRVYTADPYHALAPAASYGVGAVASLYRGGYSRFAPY

B1: HNRNPL (protein, UniProt P14866 1-589)
chain: MSRRLLPRAEKRRRRLEQRQQPDEQRRRSGAMVKMAAAGGGGGGGRYYGGGSEGGRAPKRLKTDNAGDQHGGGGGGGGGAGAAGGGGGGENYDDPHKTPASPVVHIRGLIDGVVEADLVEALQEFGPISYVVVMPKKRQALVEFEDVLGACNAVNYAADNQIYIAGHPAFVNYSTSQKISRPGDSDDSRSVNSVLLFTILNPIYSITTDVLYTICNPCGPVQRIVIFRKNGVQAMVEFDSVQSAQRAKASLNGADIYSGCCTLKIEYAKPTRLNVFKNDQDTWDYTNPNLSGQGDPGSNPNKRQRQPPLLGDHPAEYGGPHGGYHSHYHDEGYGPPPPHYEGRRMGPPVGGHRRGPSRYGPQYGHPPPPPPPPEYGPHADSPVLMVYGLDQSKMNCDRVFNVFCLYGNVEKVKFMKSKPGAAMVEMADGYAVDRAITHLNNNFMFGQKLNVCVSKQPAIMPGQSYGLEDGSCSYKDFSESRNNRFSTPEQAAKNRIQHPSNVLHFFNAPLEVTEENFFEICDELGVKRPSSVKVFSGKSERSSSGLLEWESKSDALETLGFLNHYQMKNPNGPYPYTLKLCFSTAQHAS
In the case of B1, the binding [1] is reported as “no binding”, the binding [2] is reported as “binds” and the binding [3] is reported as “no binding”.
